Laboratory results taken from PMC12153781.
No constants are given. Whether binding was seen depends on the method and setting. Binding seen in cells or lysates may run through a third protein. Some binding calls cover weakened binding; strength is not graded here. For some assays here: Tags and fused reporters may be left off the sequences shown. Blank lines part the entries; values can stand above or below the molecule they belong to.

By UniProt entry, the sequences of proteins in these tests, tags left out.
UniProt Q9UN81: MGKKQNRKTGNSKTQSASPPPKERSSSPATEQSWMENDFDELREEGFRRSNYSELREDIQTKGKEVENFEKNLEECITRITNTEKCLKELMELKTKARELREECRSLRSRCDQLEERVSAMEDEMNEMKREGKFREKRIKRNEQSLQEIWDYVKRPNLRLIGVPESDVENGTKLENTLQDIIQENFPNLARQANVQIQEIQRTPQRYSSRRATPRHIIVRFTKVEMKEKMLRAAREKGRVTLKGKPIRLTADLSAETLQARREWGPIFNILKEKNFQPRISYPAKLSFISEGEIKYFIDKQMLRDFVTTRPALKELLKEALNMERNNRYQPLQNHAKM
UniProt P45973: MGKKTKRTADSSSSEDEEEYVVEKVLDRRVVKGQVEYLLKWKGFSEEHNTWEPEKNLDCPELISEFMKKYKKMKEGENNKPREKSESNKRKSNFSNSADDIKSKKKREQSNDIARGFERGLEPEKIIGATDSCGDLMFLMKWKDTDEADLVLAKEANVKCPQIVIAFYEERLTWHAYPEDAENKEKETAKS

How the values were obtained:
[1] = target: T1, SLFN11 (endogenous) (human (endogenous in 293FT)) (UniProt Q7Z7L1); assay: co-IP; endogenous proteins in 293FT cells; immunoprecipitated with anti-SLFN11 antibodies, immunoblot for the indicated proteins
T1 sequence: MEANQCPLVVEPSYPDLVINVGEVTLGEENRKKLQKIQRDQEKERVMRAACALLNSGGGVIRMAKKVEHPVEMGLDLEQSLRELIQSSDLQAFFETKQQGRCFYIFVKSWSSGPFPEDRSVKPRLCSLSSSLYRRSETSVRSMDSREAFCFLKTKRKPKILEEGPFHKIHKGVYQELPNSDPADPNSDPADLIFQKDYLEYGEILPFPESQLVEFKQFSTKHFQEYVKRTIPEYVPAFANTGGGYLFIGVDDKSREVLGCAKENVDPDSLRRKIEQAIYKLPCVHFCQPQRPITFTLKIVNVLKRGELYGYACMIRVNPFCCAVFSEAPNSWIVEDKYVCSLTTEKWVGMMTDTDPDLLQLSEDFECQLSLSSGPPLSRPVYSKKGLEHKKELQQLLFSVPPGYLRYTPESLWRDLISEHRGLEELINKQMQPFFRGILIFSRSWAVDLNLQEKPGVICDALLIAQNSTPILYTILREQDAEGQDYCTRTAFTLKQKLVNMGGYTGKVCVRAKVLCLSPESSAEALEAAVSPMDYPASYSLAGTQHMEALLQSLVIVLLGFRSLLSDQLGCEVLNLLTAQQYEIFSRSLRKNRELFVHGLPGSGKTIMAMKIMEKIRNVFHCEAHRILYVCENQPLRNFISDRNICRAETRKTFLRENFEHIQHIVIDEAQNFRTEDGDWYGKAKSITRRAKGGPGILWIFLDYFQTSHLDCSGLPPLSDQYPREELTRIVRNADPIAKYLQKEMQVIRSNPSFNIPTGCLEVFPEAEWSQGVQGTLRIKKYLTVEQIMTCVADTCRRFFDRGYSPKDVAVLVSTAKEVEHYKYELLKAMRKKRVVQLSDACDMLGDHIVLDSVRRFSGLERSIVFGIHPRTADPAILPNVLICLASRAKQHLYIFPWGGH

[2] = target: Myc-tagged LINE-1 ORF1p (human) (UniProt Q9UN81); assay: co-IP; Myc-ORF1p co-expressed with Flag-SLFN11 or Flag-MOV10 in 293T cells; NETN buffer (20 mM Tris-HCl pH 8.0, 100 mM NaCl, 1 mM EDTA, 0.5% NP-40); lysates treated with RNase A (100 ug/mL) or left untreated; immunoprecipitated with anti-Myc (legend; methods say anti-Flag M2), immunoblot

- binding [1]: binds
Molecule: heterochromatin protein 1α (HP1α/CBX5) (from UniProt P45973 1-191)

- binding [2]: no binding
B1: Flag-tagged SLFN11 (protein, UniProt Q7Z7L1 1-901)
chain: T1 sequence
